This assay relates to HEK293A TEAD-LUC reporter. The assay is described as follows: TEAD-luciferase reporter activity (YAP activation), robust Z score vs plate; higher = stronger YAP/TEAD activation. Particulars: 24 h.

SMILES strings stand for the structures. Structures can show the parent of a compound that is named as a salt. The list shows a part of the results. Repeats in this data set agree poorly, so a single value says little.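 In a drug-repurposing library screen, luminescence reads luciferase driven by eight TEAD-binding elements, stably integrated into human kidney-derived cells. Compounds scoring over five robust Z scores above the plate mean are called hits.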

`Nc1cc(C(F)(F)F)c(-c2cc(N3CCOCC3)nc(N3CCOCC3)n2)cn1` [buparlisib]: the TEAD-luciferase reporter activity by setting is: (compound concentration: 200 nM) inactive: 0.918; (compound concentration: 2 uM) inactive: -0.747; (compound concentration: 10 uM) inactive: 3.69.

In the case of `CCCCN(CCCC)CCCC(O)c1ccc(NS(C)(=O)=O)cc1` (stereo not drawn), the TEAD-luciferase reporter activity is inactive: -0.982 (compound concentration: 200 nM), inactive: 0.648 (compound concentration: 2 uM) and inactive: 0.287 (compound concentration: 10 uM).

Consider `OB1OCc2cc(F)ccc21` [Tavaborole], for which the TEAD-luciferase reporter activity runs as follows: (compound concentration: 200 nM) inactive: 0.77; (compound concentration: 2 uM) inactive: 0.922; (compound concentration: 10 uM) inactive: 1.12.

On to `COc1ccc(Br)cc1NC(=O)Nc1cccc2c1ccn2Cc1ccnc(N)c1`, for which the TEAD-luciferase reporter activity runs as follows: (compound concentration: 200 nM) inactive: -1.55; (compound concentration: 2 uM) inactive: -0.622; (compound concentration: 10 uM) inactive: -1.21.

On to `CCNC(=O)[C@@H]1CCCN1C(=O)[C@H](CCCNC(=N)N)NC(=O)[C@H](CC(C)C)NC(=O)[C@@H](COC(C)(C)C)NC(=O)[C@H](Cc1ccc(O)cc1)NC(=O)[C@H](CO)NC(=O)[C@H](Cc1c[nH]c2ccccc12)NC(=O)[C@H](Cc1c[nH]cn1)NC(=O)[C@@H]1CCC(=O)N1` [Buserelin (Acetate)], for which the TEAD-luciferase reporter activity runs as follows: (compound concentration: 200 nM) inactive: -1.13; (compound concentration: 2 uM) inactive: -0.0751; (compound concentration: 10 uM) inactive: 1.6.

Take `CC(C)OC(=O)[C@H](C)NP(=O)(OC[C@H]1O[C@@H](n2ccc(=O)[nH]c2=O)[C@](C)(F)[C@@H]1O)Oc1ccccc1` (stereo partly drawn) [Sofosbuvir]: the TEAD-luciferase reporter activity is inactive: -1.78 (compound concentration: 200 nM), inactive: -0.601 (compound concentration: 2 uM) and inactive: -2.37 (compound concentration: 10 uM).

As for `CCOC(=O)C1CCN(c2nc(N(C)S(=O)(=O)c3ccc(OC)cc3)ccc2[N+](=O)[O-])CC1`, the TEAD-luciferase reporter activity runs as follows: (compound concentration: 200 nM) inactive: -0.631; (compound concentration: 2 uM) inactive: -1.06; (compound concentration: 10 uM) inactive: 1.15.

For the compound `Cc1nc(N)nc(N)c1C12CC3CC(CC(C3)C1)C2`, the TEAD-luciferase reporter activity by setting is: (compound concentration: 200 nM) inactive: -0.822; (compound concentration: 10 uM) inactive: -0.064.

As to `Cc1cc(C(=O)Nc2ccc(-c3ccccc3S(N)(=O)=O)cc2)n(-c2cccc(C(=N)N)c2)n1`, the TEAD-luciferase reporter activity (compound concentration: 200 nM) was inactive: 0.749, the TEAD-luciferase reporter activity (compound concentration: 2 uM) is inactive: -0.752 and the TEAD-luciferase reporter activity (compound concentration: 10 uM) is inactive: -0.108.

As for `CSCC[C@H](NC(=O)[C@@H]1CCCN1C(=O)CNC(=O)[C@H](CCCCN)NC(=O)[C@H](Cc1cnc[nH]1)NC(=O)[C@H](CO)NC(=O)[C@H](CC(C)C)NC(=O)[C@H](CCCNC(=N)N)NC(=O)[C@@H]1CCCN1C(=O)[C@H](CCCNC(=N)N)NC(=O)[C@@H](N)CCC(N)=O)C(=O)N1CCC[C@H]1C(=O)N[C@@H](Cc1ccccc1)C(=O)O` [Apelin-13], the TEAD-luciferase reporter activity is, setting by setting: (compound concentration: 200 nM) inactive: -1.56; (compound concentration: 2 uM) inactive: 0.315; (compound concentration: 10 uM) inactive: -1.19.

Consider `CN(C)CCC=C1c2ccccc2C=Cc2ccccc21` [cyclobenzaprine HCl, Aptalis], for which the TEAD-luciferase reporter activity (compound concentration: 200 nM) was inactive: -0.236 and the TEAD-luciferase reporter activity (compound concentration: 10 uM) was inactive: 0.63.

Turning to `CN(C)CCC=C1c2ccccc2C=Cc2ccccc21` [cyclobenzaprine HCl], under “compound concentration: 2 uM”, the TEAD-luciferase reporter activity is inactive: 0.618.

As to `CC(NC(=O)C(CSC(=O)c1ccccc1)C(C)c1ccccc1)C(=O)O` (stereo not drawn) [Mixanpril], the TEAD-luciferase reporter activity runs as follows: (compound concentration: 200 nM) inactive: -1.64; (compound concentration: 2 uM) inactive: -0.0786; (compound concentration: 10 uM) inactive: -1.57.

As to `CCCNCC(COc1ccccc1C(=O)CCc1ccccc1)OC` (stereo not drawn), the TEAD-luciferase reporter activity by setting is: (compound concentration: 200 nM) inactive: 0.882; (compound concentration: 2 uM) inactive: 0.326; (compound concentration: 10 uM) inactive: -1.12.

`O=c1oc2cc(O)ccc2c2oc3cc(O)ccc3c12`: the TEAD-luciferase reporter activity is inactive: -1.2 (compound concentration: 2 uM) and inactive: -0.969 (compound concentration: 10 uM).

In the case of `CN(C)N(C)C(=O)[C@@]1(Cc2ccccc2)CCCN(C(=O)[C@@H](Cc2c[nH]c3ccccc23)NC(=O)C(C)(C)N)C1` [anamorelin hydrochloride], the TEAD-luciferase reporter activity (compound concentration: 200 nM) is inactive: -1.57, the TEAD-luciferase reporter activity (compound concentration: 2 uM) is inactive: -0.359 and the TEAD-luciferase reporter activity (compound concentration: 10 uM) is inactive: 2.04.

Turning to `O=C1NCc2ccccc2CC12CCCCN2CC1CC=CCC1` (stereo not drawn), the TEAD-luciferase reporter activity (compound concentration: 200 nM) was inactive: 3.11 and the TEAD-luciferase reporter activity (compound concentration: 10 uM) was inactive: 0.767.

Turning to `CN[C@H](CC(C)C)C(=O)N[C@H]1C(=O)N[C@@H](CC(N)=O)C(=O)N[C@H]2C(=O)N[C@H]3C(=O)N[C@H](C(=O)N[C@H](C(=O)O)c4cc(O)cc(O)c4-c4cc3ccc4O)[C@H](O[C@H]3C[C@](C)(N)[C@@H](O)[C@H](C)O3)c3ccc(c(Cl)c3)Oc3cc2cc(c3O[C@@H]2O[C@H](CO)[C@@H](O)[C@H](O)[C@H]2O[C@H]2C[C@](C)(NCc3ccc(-c4ccc(Cl)cc4)cc3)[C@@H](O)[C@H](C)O2)Oc2ccc(cc2Cl)[C@H]1O` [Oritavancin (diphosphate)], the TEAD-luciferase reporter activity runs as follows: (compound concentration: 200 nM) inactive: -1.3; (compound concentration: 2 uM) inactive: -0.825; (compound concentration: 10 uM) inactive: 2.81.

`CC(=O)NCCCCCCNC(C)=O` [Hexamethylenebisacetamide]: where the note is “compound concentration: 2 uM”, the TEAD-luciferase reporter activity was inactive: -0.2.

As for `CC(=O)NCCCCCCNC(C)=O`, the TEAD-luciferase reporter activity by setting is: (compound concentration: 200 nM) inactive: 0.788; (compound concentration: 10 uM) inactive: 0.207.

`c1ccc(C(c2ccccc2)N2CCN(Cc3ccc4c(c3)OCO4)CC2)cc1`: the TEAD-luciferase reporter activity (compound concentration: 200 nM) is inactive: -0.0324, the TEAD-luciferase reporter activity (compound concentration: 2 uM) was inactive: -0.408 and the TEAD-luciferase reporter activity (compound concentration: 10 uM) is inactive: -1.19.

For the compound `CN1CC(=O)N2[C@H](c3ccc4c(c3)OCO4)c3[nH]c4ccccc4c3C[C@@H]2C1=O`, the TEAD-luciferase reporter activity reads like this: (compound concentration: 200 nM) inactive: -1.03; (compound concentration: 2 uM) inactive: -0.949; (compound concentration: 10 uM) inactive: 0.212.

With `O=C([O-])P(=O)([O-])[O-]` [Foscarnet sodium], the TEAD-luciferase reporter activity is, setting by setting: (compound concentration: 200 nM) inactive: -0.165; (compound concentration: 2 uM) inactive: 0.191; (compound concentration: 10 uM) inactive: 4.01.

For `COc1cc2c(cc1OC)C(c1cc(OC)c(OC)c(OC)c1)NCC2` (stereo not drawn), the TEAD-luciferase reporter activity is inactive: 0.698 (compound concentration: 200 nM), inactive: -2.01 (compound concentration: 2 uM) and inactive: -0.303 (compound concentration: 10 uM).

Values taken from the supplement of paper PMC10735217.
